Data published in patent US20250313563A1, “GLYCOGEN SYNTHASE KINASE 3 INHIBITORS AND USES THEREOF” (The Broad Institute, Inc., priority 2022, published 2025).
The source holds more than one record for some entries. Only these are listed. There may be further records. Results that share an entry differ for a reason that is not stated; dose, time, organism, isomer or construct need not be as stated for each record.

Tested on: MDR1-MDCK cell monolayers
Assay: MDR1/MDCK assay (blood-brain barrier penetration potential)
Conditions: 5 μM, pH 7.4, 120 minutes, B to A

| Structure (SMILES) | MDCK permeability (MDR1-MDCK); Mean; Papp (B − A) |
| --- | --- |
| CC(C)(C)Cc1[nH]nc2c1C1(CN(S(=O)(=O)c3ccccc3)C1)C1=C(CC(C)(C)CC1=O)N2 | 24.75 10^−6 cm/s and 6.52 10^−6 cm/s |
| CC(C)(C)Cc1[nH]nc2c1[C@](C)(c1cccc(S(=O)(=O)CC3CC3)c1)C1=C(CC(C)(C)NC1=O)N2 | 16.31 10^−6 cm/s and 6.17 10^−6 cm/s |
